# Test results taken from paper PMC12425082.
# Target: T1, GFP-tagged Munc13-4 (UniProt Q70J99)
# T1 sequence: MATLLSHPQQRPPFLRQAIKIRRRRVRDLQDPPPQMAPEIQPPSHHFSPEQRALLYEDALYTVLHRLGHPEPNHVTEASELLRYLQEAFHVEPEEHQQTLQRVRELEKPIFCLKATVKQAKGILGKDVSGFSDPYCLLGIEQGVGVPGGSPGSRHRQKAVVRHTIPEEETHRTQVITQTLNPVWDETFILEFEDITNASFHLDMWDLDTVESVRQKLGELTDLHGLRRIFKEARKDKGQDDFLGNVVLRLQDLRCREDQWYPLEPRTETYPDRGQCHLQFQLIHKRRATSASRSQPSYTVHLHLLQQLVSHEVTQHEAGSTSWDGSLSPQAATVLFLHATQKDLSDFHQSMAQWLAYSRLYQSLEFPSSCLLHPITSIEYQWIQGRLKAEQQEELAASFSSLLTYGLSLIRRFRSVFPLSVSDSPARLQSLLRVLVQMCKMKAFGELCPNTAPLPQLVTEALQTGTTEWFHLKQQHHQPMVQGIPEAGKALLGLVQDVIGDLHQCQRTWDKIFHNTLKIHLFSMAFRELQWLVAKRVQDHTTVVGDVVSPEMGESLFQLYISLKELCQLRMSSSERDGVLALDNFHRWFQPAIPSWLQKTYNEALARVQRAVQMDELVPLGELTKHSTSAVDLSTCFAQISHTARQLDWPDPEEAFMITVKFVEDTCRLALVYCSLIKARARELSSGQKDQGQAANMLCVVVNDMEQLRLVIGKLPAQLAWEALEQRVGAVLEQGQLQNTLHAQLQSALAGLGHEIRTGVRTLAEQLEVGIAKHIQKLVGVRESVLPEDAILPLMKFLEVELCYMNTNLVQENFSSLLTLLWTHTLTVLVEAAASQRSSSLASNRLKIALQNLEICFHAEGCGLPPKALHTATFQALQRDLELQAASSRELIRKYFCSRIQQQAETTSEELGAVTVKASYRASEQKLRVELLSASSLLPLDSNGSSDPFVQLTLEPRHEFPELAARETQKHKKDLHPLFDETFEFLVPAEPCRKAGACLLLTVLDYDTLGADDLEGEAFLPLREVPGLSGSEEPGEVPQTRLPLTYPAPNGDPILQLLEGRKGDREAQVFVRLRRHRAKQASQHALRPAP
# Experiment: co-IP; lysates of BON cells expressing GFP or GFP-Munc13-4 precipitated with GFP nanobodies; western blotting of the pull-downs with antibodies to the partners
substance,measurement,value
Rab7 (human (endogenous in BON)),binding,no binding

# Results are given in words; binding and its absence hold for the method and conditions named. Binding seen in cells or lysates may run through a third protein. Tags and fused reporters may be left off the sequences shown.
